Data source: PubChem BioAssay AID652243 (Drosophila RNAi Screening Center, 2013)
In all, the deposit lists about 24,000 reagents; below is an unselected part of those that have a named target and a result. In the full data, 246 (1%) were called active. 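Plates not normalised; calls are printed but the firefly/Renilla ratio behind them is not deposited; fold cut for lowering reported inconsistently.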 Raw values are not corrected between plates. Reagents against one gene are numbered here. A plus sign joins genes that one reagent is predicted to hit. Not given: the amount of reagent.

- Assay: 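Fly regulators of androgen-dependent reporter output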 (primary screen)
- System: Drosophila S2R+ cells
- Reagents: long dsRNA against Drosophila genes
- Duration: 72 h (48 h, then 24 h hormone)
- Challenge: synthetic androgen R1881 at 10 nM for 24 h
- Detection: 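Firefly light from an androgen-responsive reporter and Renilla control light per well, raw and unnormalised, for each of two replicates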
- Scale: firefly reporter light: higher = more light from androgen-responsive reporter; Renilla control light: higher = more constitutive control signal (cell number, transfection)
- Hit rule: 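Across duplicate plates, a knock-down whose log firefly/Renilla ratio shifted a set fold down or up from the GFP/LacZ control mean was a hit; the downward cut appears as both 1.5 and 3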
- Meaning of the calls: active = hit: reporter lowered or raised; inactive = no hit

gene | reagent no. | firefly reporter light, replicate 1 | firefly reporter light, replicate 2 | Renilla control light, replicate 1 | Renilla control light, replicate 2 | Outcome
Stlk (Ste20-like kinase) | 1 | 7.94e5 | 7.19e5 | 1.56e6 | 1.44e6 | inactive
Stlk (Ste20-like kinase) | 2 | – | – | – | – | inactive
retinin | 1 | 2.12e5 | 1.56e5 | 1.97e6 | 1.70e6 | inactive
retinin | 2 | 4.94e5 | 2.17e5 | 1.33e6 | 2.86e5 | inactive
CG11413 + CG4622 | 1 | 1.09e5 | 1.31e5 | 1.25e6 | 1.40e6 | inactive
CG11413 + CG4622 | 2 | 2.28e5 | 2.40e5 | 5.81e5 | 4.51e5 | inactive
Nepl6 (Neprilysin-like 6) | 1 | 6.35e5 | 7.12e5 | 3.63e6 | 4.49e6 | inactive
Nepl6 (Neprilysin-like 6) | 2 | 2.75e5 | 3.73e5 | 9.22e5 | 9.80e5 | inactive
CR31958 (pseudo) | 1 | 1.50e5 | 1.54e5 | 1.37e6 | 1.40e6 | inactive
CR31958 (pseudo) | 2 | 8.02e5 | 8.87e5 | 1.17e6 | 1.40e6 | inactive
CR31958 (pseudo) | 3 | 6.11e5 | 6.16e5 | 7.21e5 | 7.30e5 | inactive
CG14352 | 1 | 93112 | 88839 | 7.41e5 | 9.04e5 | inactive
CG11437 | 1 | 2.40e5 | 2.69e5 | 2.98e6 | 3.20e6 | inactive
CG34326 (retired record) | 1 | 9.62e5 | 8.04e5 | 1.96e6 | 1.78e6 | inactive
PIG-B (Phosphatidylinositol glycan anchor biosynthesis class B) | 1 | 5.52e5 | 5.42e5 | 3.41e6 | 3.07e6 | inactive
PIG-B (Phosphatidylinositol glycan anchor biosynthesis class B) | 2 | 8.96e5 | 7.37e5 | 1.10e6 | 9.77e5 | inactive
RN-tre (Related to the N terminus of tre oncogene) | 1 | 1.19e5 | 1.22e5 | 3.64e6 | 3.64e6 | inactive
RN-tre (Related to the N terminus of tre oncogene) | 2 | 5.56e5 | 1.10e6 | 1.15e6 | 1.52e6 | inactive
CG1598 | 1 | 1.99e5 | 1.92e5 | 1.84e6 | 1.78e6 | inactive
CG2818 | 1 | 5.61e5 | 6.62e5 | 2.60e6 | 1.93e6 | inactive
Uqcc1 + CG9948 | 1 | 1.90e5 | 1.62e5 | 1.70e6 | 1.46e6 | inactive
CG5177 | 1 | 6.94e5 | 8.93e5 | 1.95e6 | 2.38e6 | inactive
CG5177 | 2 | – | – | – | – | inactive

Continued, starting with the last 2 of the part before.
gene | reagent no. | firefly reporter light, replicate 1 | firefly reporter light, replicate 2 | Renilla control light, replicate 1 | Renilla control light, replicate 2 | Outcome
CG5177 | 1 | 6.94e5 | 8.93e5 | 1.95e6 | 2.38e6 | inactive
CG5177 | 2 | – | – | – | – | inactive
qjt (quijote) | 1 | 1.72e5 | 1.68e5 | 1.10e6 | 1.93e6 | inactive
qjt (quijote) | 2 | 8.07e5 | 8.47e5 | 9.05e5 | 9.57e5 | inactive
pum (pumilio) | 1 | 2.43e5 | 2.40e5 | 3.86e5 | 5.43e5 | inactive
pum (pumilio) | 2 | 1.90e5 | 1.90e5 | 1.90e6 | 3.49e6 | inactive
pum (pumilio) | 3 | 8.40e5 | 1.33e6 | 1.50e6 | 3.02e6 | inactive
pum (pumilio) | 4 | 5.92e5 | 9.57e5 | 1.45e6 | 2.25e6 | inactive
pum (pumilio) | 5 | 4.32e5 | 4.03e5 | 5.79e5 | 4.19e5 | inactive
Art9 (Arginine methyltransferase 9) | 1 | 1.50e5 | 1.67e5 | 2.39e6 | 2.83e6 | inactive
Cyp308a1 (Cytochrome P450 308a1) | 1 | 3.71e5 | 1.32e5 | 1.22e6 | 2.46e5 | inactive
Cyp308a1 (Cytochrome P450 308a1) | 2 | 5.22e5 | 2.96e5 | 6.12e5 | 4.07e5 | inactive
Trm7-34 (tRNA methyltransferase 7-34) | 1 | 5.94e5 | 8.38e5 | 3.74e6 | 4.25e6 | inactive
CG30192 | 1 | 1.53e5 | 2.06e5 | 2.11e5 | 4.05e5 | inactive
lectin-24A | 1 | 1.28e5 | 1.53e5 | 7.08e5 | 9.18e5 | inactive
H2.0 (Homeodomain protein 2.0) | 1 | 95888 | 62507 | 1.58e6 | 1.44e6 | inactive
H2.0 (Homeodomain protein 2.0) | 2 | 9.63e5 | 8.13e5 | 9.96e5 | 8.91e5 | inactive
FASN1 (Fatty acid synthase 1) | 1 | 8.48e5 | 8.47e5 | 1.94e6 | 1.49e6 | inactive
FASN1 (Fatty acid synthase 1) | 2 | 85435 | 96593 | 1.37e5 | 1.48e5 | inactive
CG43394 | 1 | 69362 | 72836 | 2.83e5 | 2.69e5 | inactive
CG43394 | 2 | 1.08e6 | 1.11e6 | 1.58e6 | 1.89e6 | inactive
CG43394 | 3 | 4.95e5 | 7.46e5 | 1.20e6 | 2.07e6 | inactive
Golgin104 (Golgin 104) | 1 | 32170 | 9536 | 2.50e5 | 1.53e5 | inactive
Golgin104 (Golgin 104) | 2 | 3.03e5 | 3.04e5 | 8.37e5 | 7.75e5 | inactive
CG43271 | 1 | 6.63e5 | 6.05e5 | 1.80e6 | 2.44e6 | inactive
betaNACtes6 (Nascent-associated complex beta-subunit-like, testis 6) | 1 | 3.51e5 | 8.67e5 | 8.88e5 | 1.80e6 | inactive
betaNACtes6 (Nascent-associated complex beta-subunit-like, testis 6) | 2 | 4.50e5 | 3.04e5 | 4.17e5 | 3.27e5 | inactive
grp (grapes) | 1 | – | – | – | – | inactive
CG4467 | 1 | 1.98e5 | 1.97e5 | 2.94e6 | 2.39e6 | inactive
CG13856 | 1 | 2.43e5 | 2.39e5 | 2.76e6 | 3.13e6 | inactive
CHKov2 (CHK domain ov2) | 1 | 64849 | 66805 | 5.31e5 | 5.91e5 | inactive
CHKov2 (CHK domain ov2) | 2 | 3.74e5 | 4.06e5 | 1.09e6 | 1.35e6 | inactive
MED11 (Mediator complex subunit 11) | 1 | 5.78e5 | 8.27e5 | 1.39e6 | 1.92e6 | inactive
MED11 (Mediator complex subunit 11) | 2 | 3.05e5 | 3.30e5 | 7.67e5 | 7.02e5 | inactive
Mfap1 (Microfibril-associated protein 1) | 1 | 7.39e5 | 8.92e5 | 1.92e6 | 2.12e6 | inactive
Mfap1 (Microfibril-associated protein 1) | 2 | 3.16e5 | 3.43e5 | 8.10e5 | 6.20e5 | inactive
Rab23 | 1 | 69101 | 1.07e5 | 1.39e6 | 1.02e6 | inactive
Rab23 | 2 | 4.54e5 | 4.31e5 | 5.04e5 | 5.08e5 | inactive
